Measurements as given in publication PMC2366074.
Results are given in words; binding and its absence hold for the method and conditions named. In cells and extracts the contact can be indirect. Some binding calls cover weakened binding; strength is not graded here. Where a sequence is shown, tags or fusion partners need not be part of it.

Sequences of proteins named here, by UniProt entry; tags and fusion partners are left off.
UniProt P51532: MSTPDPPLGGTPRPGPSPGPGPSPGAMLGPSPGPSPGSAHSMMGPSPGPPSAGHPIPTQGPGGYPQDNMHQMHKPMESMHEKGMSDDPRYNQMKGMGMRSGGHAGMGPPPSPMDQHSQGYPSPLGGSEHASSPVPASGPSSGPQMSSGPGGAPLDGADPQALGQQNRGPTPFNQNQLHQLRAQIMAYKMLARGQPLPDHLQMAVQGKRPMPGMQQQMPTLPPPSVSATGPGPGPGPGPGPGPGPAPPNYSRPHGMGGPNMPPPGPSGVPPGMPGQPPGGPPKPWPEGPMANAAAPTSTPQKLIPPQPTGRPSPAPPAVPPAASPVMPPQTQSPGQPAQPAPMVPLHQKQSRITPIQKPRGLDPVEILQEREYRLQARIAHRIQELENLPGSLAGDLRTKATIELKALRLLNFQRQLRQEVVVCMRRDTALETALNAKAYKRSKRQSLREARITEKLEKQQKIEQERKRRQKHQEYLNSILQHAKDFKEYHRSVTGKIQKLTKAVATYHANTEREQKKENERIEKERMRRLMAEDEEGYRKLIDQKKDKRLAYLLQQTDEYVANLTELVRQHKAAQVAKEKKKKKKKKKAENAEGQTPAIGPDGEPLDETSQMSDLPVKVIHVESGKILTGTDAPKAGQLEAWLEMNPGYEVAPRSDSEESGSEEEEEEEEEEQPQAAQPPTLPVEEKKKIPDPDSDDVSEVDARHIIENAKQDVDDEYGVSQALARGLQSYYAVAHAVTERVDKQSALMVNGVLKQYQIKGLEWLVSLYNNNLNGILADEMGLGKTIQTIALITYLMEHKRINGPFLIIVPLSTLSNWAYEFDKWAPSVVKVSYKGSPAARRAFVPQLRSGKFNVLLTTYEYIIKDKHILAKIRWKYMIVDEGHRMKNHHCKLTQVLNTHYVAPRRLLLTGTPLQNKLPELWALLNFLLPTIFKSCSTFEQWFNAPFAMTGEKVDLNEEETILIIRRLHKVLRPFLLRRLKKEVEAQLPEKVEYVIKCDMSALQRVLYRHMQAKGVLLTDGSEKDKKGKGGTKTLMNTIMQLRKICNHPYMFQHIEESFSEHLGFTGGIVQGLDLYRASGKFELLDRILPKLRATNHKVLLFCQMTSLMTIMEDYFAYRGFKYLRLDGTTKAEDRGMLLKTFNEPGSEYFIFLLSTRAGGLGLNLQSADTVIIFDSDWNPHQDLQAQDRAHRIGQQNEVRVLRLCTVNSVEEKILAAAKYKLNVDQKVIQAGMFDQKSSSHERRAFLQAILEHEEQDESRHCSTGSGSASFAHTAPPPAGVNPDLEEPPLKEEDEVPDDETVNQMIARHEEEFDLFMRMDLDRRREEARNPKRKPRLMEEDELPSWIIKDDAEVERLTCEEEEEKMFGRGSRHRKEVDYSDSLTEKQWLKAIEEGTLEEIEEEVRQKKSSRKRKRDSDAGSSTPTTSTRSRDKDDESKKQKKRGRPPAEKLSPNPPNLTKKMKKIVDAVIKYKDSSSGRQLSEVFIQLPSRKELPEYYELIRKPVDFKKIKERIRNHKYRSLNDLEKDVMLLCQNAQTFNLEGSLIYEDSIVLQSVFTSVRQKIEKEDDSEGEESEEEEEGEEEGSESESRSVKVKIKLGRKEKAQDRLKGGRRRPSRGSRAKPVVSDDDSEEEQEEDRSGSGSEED

Biological target: T1, Recombinant green fluorescent protein (GFP)-ADNP (UniProt Q9H2P0)
T1 sequence: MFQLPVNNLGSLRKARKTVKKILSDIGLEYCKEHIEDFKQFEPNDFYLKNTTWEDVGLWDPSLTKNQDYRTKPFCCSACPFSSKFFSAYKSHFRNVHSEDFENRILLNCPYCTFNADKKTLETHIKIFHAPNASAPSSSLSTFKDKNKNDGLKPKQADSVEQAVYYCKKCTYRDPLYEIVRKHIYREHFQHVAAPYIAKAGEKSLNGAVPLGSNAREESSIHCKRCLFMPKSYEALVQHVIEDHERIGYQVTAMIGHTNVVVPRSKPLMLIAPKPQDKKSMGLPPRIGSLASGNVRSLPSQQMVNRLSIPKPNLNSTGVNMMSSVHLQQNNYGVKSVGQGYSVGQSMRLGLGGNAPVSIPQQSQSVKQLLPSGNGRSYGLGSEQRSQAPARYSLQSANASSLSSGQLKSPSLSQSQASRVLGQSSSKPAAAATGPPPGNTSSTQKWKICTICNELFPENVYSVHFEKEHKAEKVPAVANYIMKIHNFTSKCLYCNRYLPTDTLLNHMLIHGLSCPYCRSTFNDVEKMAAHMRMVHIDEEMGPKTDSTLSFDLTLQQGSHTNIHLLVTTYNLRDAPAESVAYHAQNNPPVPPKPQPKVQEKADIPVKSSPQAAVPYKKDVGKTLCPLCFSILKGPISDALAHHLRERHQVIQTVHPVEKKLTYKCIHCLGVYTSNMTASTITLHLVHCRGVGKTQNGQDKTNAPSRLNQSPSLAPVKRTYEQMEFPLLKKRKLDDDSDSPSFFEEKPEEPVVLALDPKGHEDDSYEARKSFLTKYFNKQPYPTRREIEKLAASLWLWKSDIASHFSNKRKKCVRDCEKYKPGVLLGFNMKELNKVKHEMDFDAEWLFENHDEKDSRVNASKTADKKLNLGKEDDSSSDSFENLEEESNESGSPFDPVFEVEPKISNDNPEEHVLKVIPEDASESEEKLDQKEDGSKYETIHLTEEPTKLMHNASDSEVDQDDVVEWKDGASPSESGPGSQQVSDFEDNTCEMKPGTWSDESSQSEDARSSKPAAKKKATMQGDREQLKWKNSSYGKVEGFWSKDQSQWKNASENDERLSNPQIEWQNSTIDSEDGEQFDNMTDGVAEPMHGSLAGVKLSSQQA
Experiment: co-IP; HEK293 cells with GFP-ADNP; verification utilizing BRG1 antibodies

binding: binds
Substance: BRG1 (from UniProt P51532 1-1647)
